From PubChem BioAssay AID220 (DTP/NCI, 2004)
The list is a part of this screen's results and no random one: it gathers tests that were run many times, whatever their T/C, doses with no T/C, and many T/C values between a quarter and a half above the control. Further doses and runs are listed elsewhere. T/C gives the treated animals as a percentage of the vehicle group. Schedule codes are those of the source, taken here to give the interval after Q, in days (D) or hours (H), and the number of doses after X. Some entries give survivors of the animals treated and no T/C: the source holds a T/C of zero for them, seemingly a mark for toxic or unscored doses. Survivors were counted at the toxicity check, usually on the fifth day, unless a day is given; later deaths do not show.

System: CD8F1 mice, subcutaneous mammary adenocarcinoma, T/C%
Test: NCI In Vivo Anticancer Drug Screen. Data for tumor model Mammary Adenocarcinoma CD8F1 (subcutaneous) in CD8F1
Settings: higher T/C = larger tumour; for T/C: evaluated on day 30
Description: The antitumor activity of compounds was measured in mice bearing transplantable tumors. Survival or tumor size were measured and the results are expressed as the measurement made in the treated group (T) divided by the measurement made in the vehicle treated control group (C). The tumor model used in this assay is Mammary Adenocarcinoma CD8F1 (subcutaneous) in CD8F1

[1] = T/C endpoint: median tumor weight change, dose: 500.0 mg/kg/injection, schedule: Q01DX001 (ip), vehicle: saline with Tween-80
[2] = T/C endpoint: median tumor weight change, dose: 1000.0 mg/kg/injection, schedule: Q01DX001 (ip), vehicle: saline with Tween-80
[3] = T/C endpoint: median tumor weight change, dose: 2000.0 mg/kg/injection, schedule: Q01DX001 (ip), vehicle: saline with Tween-80

CC(C)NC(=O)OCc1c(COC(=O)NC(C)C)c(-c2ccc(Cl)c(Cl)c2)n2c1CCC2
survivor count (T/C endpoint: median tumor weight (est.), dose: 200.0 mg/kg/injection, schedule: Q07DX005 (ip), vehicle: distilled water + Tween-80): 2 of 10 on day 30 | survivor count (T/C endpoint: median tumor weight (est.), dose: 400.0 mg/kg/injection, schedule: Q07DX005 (ip), vehicle: distilled water + Tween-80): 0 of 10 on day 30

Cc1c2ccc3ccccc3c2c[n+]2ccccc12
survivor count (T/C endpoint: median tumor weight (est.), dose: 40.0 mg/kg/injection, schedule: Q07DX005 (ip), vehicle: Klucel (hydroxypropylcellulose) (HPC)): 4 of 10 on day 30 | survivor count (T/C endpoint: median tumor weight (est.), dose: 80.0 mg/kg/injection, schedule: Q07DX005 (ip), vehicle: Klucel (hydroxypropylcellulose) (HPC)): 0 of 10 on day 30

Nc1nc(N)c2c(Cl)c(CNc3ccc(Cl)c(Cl)c3)ccc2n1
survivor count (T/C endpoint: median tumor weight (est.), dose: 200.0 mg/kg/injection, schedule: Q07DX005 (ip), vehicle: saline with Tween-80): 6 of 10 on day 30

NC(=O)c1cn(C2OC(CO)C(O)C2O)c2ncnc(N)c12 (centres undefined)
survivor count (T/C endpoint: median tumor weight (est.), dose: 0.5 mg/kg/injection, schedule: Q07DX005 (ip), vehicle: suspension in saline): 5 of 10 on day 30 | T/C (T/C endpoint: median tumor weight (est.), dose: 1.0 mg/kg/injection, schedule: Q07DX005 (ip), vehicle: suspension in saline): 126 % of control | survivor count (T/C endpoint: median tumor weight (est.), dose: 8.0 mg/kg/injection, schedule: Q07DX005 (ip), vehicle: suspension in saline): 6 of 10 on day 30 | survivor count (T/C endpoint: median tumor weight (est.), dose: 400.0 mg/kg/injection, schedule: Q07DX005 (ip), vehicle: suspension in saline): 0 of 10 on day 30 | survivor count (T/C endpoint: median tumor weight (est.), dose: 800.0 mg/kg/injection, schedule: Q07DX005 (ip), vehicle: suspension in saline): 0 of 10 on day 30 | survivor count (T/C endpoint: median tumor weight (est.), dose: 1600.0 mg/kg/injection, schedule: Q07DX005 (ip), vehicle: suspension in saline): 0 of 10 on day 30 | survivor count (T/C endpoint: median tumor weight change, dose: 10.0 mg/kg/injection, schedule: Q01DX001 (ip), vehicle: suspension in saline): 0 of 10 on day 27 | survivor count (T/C endpoint: median tumor weight change, dose: 20.0 mg/kg/injection, schedule: Q01DX001 (ip), vehicle: suspension in saline): 0 of 10 on day 27

CN=C(N)N/N=C(\C)c1ccc2c(c1)Cc1ccccc1-2
survivor count [1]: 4 of 10 on day 33 | survivor count [2]: 0 of 10 on day 33 | survivor count [3]: 0 of 10 on day 33

CCC(C(=O)O)C(=O)O.[NH-]CC1CCCC[N-]1.[Pt+2]
survivor count (T/C endpoint: median tumor weight change, dose: 250.0 mg/kg/injection, schedule: Q01DX001 (ip), vehicle: saline): 0 of 10 on day 33 | survivor count (T/C endpoint: median tumor weight change, dose: 500.0 mg/kg/injection, schedule: Q01DX001 (ip), vehicle: saline): 0 of 10 on day 33 | survivor count (T/C endpoint: median tumor weight change, dose: 1000.0 mg/kg/injection, schedule: Q01DX001 (ip), vehicle: saline): 0 of 10 on day 33 | survivor count (T/C endpoint: median tumor weight change, dose: 2000.0 mg/kg/injection, schedule: Q01DX001 (ip), vehicle: saline): 1 of 10 on day 33

O=c1c(O)c(-c2cc(O)c(O)c(O)c2)oc2cc(O)cc(O)c12
survivor count [2]: 6 of 10 on day 29 | survivor count [3]: 0 of 10 on day 29

O=C1C=C(C2OC(CO)C(O)C2O)C(=O)N1 (centres undefined)
T/C (T/C endpoint: median tumor weight (est.), dose: 3.13 mg/kg/injection, schedule: Q07DX005 (ip), vehicle: saline): 140 % of control | survivor count (T/C endpoint: median tumor weight (est.), dose: 12.5 mg/kg/injection, schedule: Q07DX005 (ip), vehicle: saline): 6 of 10 on day 30 | survivor count (T/C endpoint: median tumor weight (est.), dose: 25.0 mg/kg/injection, schedule: Q07DX005 (ip), vehicle: saline): 0 of 10 on day 30 | survivor count (T/C endpoint: median tumor weight (est.), dose: 50.0 mg/kg/injection, schedule: Q07DX005 (ip), vehicle: saline): 0 of 10 on day 30

C/C(=N\NC(N)=O)c1cccc(/C(C)=N/NC(N)=O)n1
survivor count [1]: 2 of 10 on day 30

CC(=O)OCC1OC([S-])C(OC(C)=O)C(OC(C)=O)C1OC(C)=O.CC[PH+](CC)CC.CC[PH+](CC)CC.[Au].[Au] (centres undefined)
survivor count (T/C endpoint: median tumor weight change, dose: 25.0 mg/kg/injection, schedule: Q01DX001 (ip), vehicle: Klucel (hydroxypropylcellulose) (HPC)): 0 of 10 on day 31 | survivor count (T/C endpoint: median tumor weight change, dose: 50.0 mg/kg/injection, schedule: Q01DX001 (ip), vehicle: Klucel (hydroxypropylcellulose) (HPC)): 1 of 10 on day 31 | survivor count (T/C endpoint: median tumor weight change, dose: 100.0 mg/kg/injection, schedule: Q01DX001 (ip), vehicle: Klucel (hydroxypropylcellulose) (HPC)): 4 of 10 on day 31

CC1=C[C@@]23[C@H](C=C(C(=O)O)[C@@H]2COC(=O)[C@]32CO2)[C@@H]1C
survivor count (T/C endpoint: median tumor weight change, dose: 8.75 mg/kg/injection, schedule: Q01DX001 (ip), vehicle: saline): 3 of 10 on day 32 | survivor count (T/C endpoint: median tumor weight change, dose: 17.5 mg/kg/injection, schedule: Q01DX001 (ip), vehicle: saline): 4 of 10 on day 32 | survivor count (T/C endpoint: median tumor weight change, dose: 35.0 mg/kg/injection, schedule: Q01DX001 (ip), vehicle: saline): 0 of 10 on day 32 | survivor count (T/C endpoint: median tumor weight change, dose: 70.0 mg/kg/injection, schedule: Q01DX001 (ip), vehicle: saline): 0 of 10 on day 32

Cc1cc2c(c3oc(C4(C)OC4C4OC4C)cc(=O)c13)C(=O)c1c(O)c(C3CC(C)(N(C)C)C(O)C(C)O3)cc(C3CC(N(C)C)C(O)C(C)O3)c1C2=O (centres undefined)
survivor count (T/C endpoint: median tumor weight (est.), dose: 0.47 mg/kg/injection, schedule: Q07DX005 (ip), vehicle: Klucel (hydroxypropylcellulose) (HPC)): 0 of 10 on day 30 | survivor count (T/C endpoint: median tumor weight (est.), dose: 0.94 mg/kg/injection, schedule: Q07DX005 (ip), vehicle: Klucel (hydroxypropylcellulose) (HPC)): 0 of 10 on day 30 | survivor count (T/C endpoint: median tumor weight (est.), dose: 1.88 mg/kg/injection, schedule: Q07DX005 (ip), vehicle: Klucel (hydroxypropylcellulose) (HPC)): 0 of 10 on day 30 | survivor count (T/C endpoint: median tumor weight (est.), dose: 3.75 mg/kg/injection, schedule: Q07DX005 (ip), vehicle: Klucel (hydroxypropylcellulose) (HPC)): 0 of 10 on day 30 | survivor count (T/C endpoint: median tumor weight (est.), dose: 7.5 mg/kg/injection, schedule: Q07DX005 (ip), vehicle: Klucel (hydroxypropylcellulose) (HPC)): 0 of 10 on day 30 | survivor count (T/C endpoint: median tumor weight (est.), dose: 0.94 micrograms/kg/injection, schedule: Q07DX005 (ip), vehicle: water): 1 of 10 on day 30 | survivor count (T/C endpoint: median tumor weight (est.), dose: 1.88 micrograms/kg/injection, schedule: Q07DX005 (ip), vehicle: water): 2 of 10 on day 30 | survivor count (T/C endpoint: median tumor weight (est.), dose: 3.75 micrograms/kg/injection, schedule: Q07DX005 (ip), vehicle: water): 2 of 10 on day 30 | survivor count (T/C endpoint: median tumor weight (est.), dose: 7.5 micrograms/kg/injection, schedule: Q07DX005 (ip), vehicle: water): 3 of 10 on day 30 | survivor count (T/C endpoint: median tumor weight (est.), dose: 15.0 micrograms/kg/injection, schedule: Q07DX005 (ip), vehicle: water): 0 of 10 on day 30
